± gives the standard deviation of the averaged measurements. The data scatter; read single values as rough.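 In each well, ERalpha-negative HeLa cells were transfected with ERalpha, a reporter bearing two estrogen response elements, and one overexpressed, poorly characterized human cDNA. Genes reducing signal to the BRCA1 positive control level (roughly 0.6 of empty vector) or below were scored as repressor hits.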
test system: ERE-luciferase reporter with exogenous ERalpha in HeLa cells; test: relative ERE luciferase activity (Firefly/Renilla) upon cDNA overexpression, relative to empty vector (fold of empty vector); higher = stronger ERalpha transactivation (less repression); conditions: 17beta-estradiol: 10 nM; 12 h

| Substance | relative ERE luciferase activity |
| --- | --- |
| MDVENEQILNVNPADPDNLSDSLFSGDEENAGTEEIKNEINGNWISASSINEARINAKAKRRLRKNSSRDSGRGDSVSDSGSDALRSGLTVPTSPKGRLLDRRSRSGKGRGLPKKGGAGGKGVWGTPGQVYDVEEVDVKDPNYDDDQENCVYETVVLPLDERAFEKTLTPIIQEYFEHGDTNEVAEMLRDLNLGEMKSGVPVLAVSLALEGKASHREMTSKLLSDLCGTVMSTTDVEKSFDKLLKDLPELALDTPRAPQLVGQFIARAVGDGILCNTYIDSYKGTVDCVQARAALDKATVLLSMSKGGKRKDSVWGSGGGQQSVNHLVKEIDMLLKEYLLSGDISEAEHCLKELEVPHFHHELVYEAIIMVLESTGESTFKMILDLLKSLWKSSTITVDQMKRGYERIYNEIPDINLDVPHSYSVLERFVEECFQAGIISKQLRDLCPSRGRKRFVSEGDGGRLKPESY [PDCD4] | 1.08 |
| MTEEPIKEILGAPKAHMAATMEKSPKSEVVITTVPLVSEIQLMAATGGTELSCYRCIIPFAVVVFIAGIVVTAVAYSFNSHGSIISIFGLVVLSSGLFLLASSALCWKVRQRSKKAKRRESQTALVANQRSLFA [TMEM100] | 1.02 |
| MDSPSSVSSYSSYSLSSSFPTSPVNSDFGFPSDSEREDKGAHGPRPDTVGQRGGSRPSPGPIRCRHRSKVSGNQHTPSHPKQRGSASPMAGSGAKRSRDGELETSLNTQGCTTEGDLLFAQKCKELQGFIPPLTDLLNGLKMGRFERGLSSFQQSVAMDRIQRIVGVLQKPQMGERYLGTLLQVEGMLKTWFPQIAAQKSSLGGGKHQLTKHFPSHHSDSAASSPASPMEKMDQTQLGHLALKPKQPWHLTQWPAMNLTWIHTTPICNPPLSSPGTISFSHGPLGTGTGIGVILFLQHGVQPFTHSAPTTPVPPTTASPVIPGEPMKLSGEGPRCYSLPVTLPSDWSYTLSPPSLPTLARKMTIGHREQQRSHPPVAADAHLLNL [C1orf51] | 1.03 |
| MAESEDRSLRIVLVGKTGSGKSATANTILGEEIFDSRIAAQAVTKNCQKASREWQGRDLLVVDTPGLFDTKESLDTTCKEISRCIISSCPGPHAIVLVLLLGRYTEEEQKTVALIKAVFGKSAMKHMVILFTRKEELEGQSFHDFIADADVGLKSIVKECGNRCCAFSNSKKTSKAEKESQVQELVELIEKMVQCNEGAYFSDDIYKDTEERLKQREEVLRKIYTDQLNEEIKLVEEDKHKSEEEKEKEIKLLKLKYDEKIKNIREEAERNIFKDVFNRIWKMLSEIWHRFLSKCKFYSS [GIMAP7] | 1.14 |
| MGDREQLLQRARLAEQAERYDDMASAMKAVTELNEPLSNEDRNLLSVAYKNVVGARRSSWRVISSIEQKTMADGNEKKLEKVKAYREKIEKELETVCNDVLSLLDKFLIKNCNDFQYESKVFYLKMKGDYYRYLAEVASGEKKNSVVEASEAAYKEAFEISKEQMQPTHPIRLGLALNFSVFYYEIQNAPEQACLLAKQAFDDAIAELDTLNEDSYKDSTLIMQLLRDNLTLWTSDQQDEEAGEGN [YWHAH] | 1.94 |
| MVAADQGRGWNPLDGPTWEVLAMPLPLGPATQVPALFSAALVPPVSSLRPNQMLDWQRLKTPHGAPVACSLGLSGEWVPTPCALSILALLGLQLDPLFGLWGCTRTLFWSEWARESRRP [TMEM148] | 1.14 |
| MGNTLGLAPMGTLPRRSPRREEPLPNPGSFDELHRLCKDVFPAQMEGVKLVVNKVLSSHFQVAHTIHMSALGLPGYHLHAAYAGDWQLSPTEVFPTVVGDMDSSGSLNAQVLLLLAERLRAKAVFQTQQAKFLTWQFDGEYRGDDYTATLTLGNPDLIGESVIMVAHFLQSLTHRLVLGGELVYHRRPGEEGAILTLAGKYSAVHWVATLNVGSGGAHASYYHRANEQVQVGVEFEANTRLQDTTFSFGYHLTLPQANMVFRGLVDSNWCVGAVLEKKMPPLPVTLALGAFLNHWRNRFHCGFSITVG [TOMM40L] | 1.18 |
| MQPPGPPPAYAPTNGDFTFVSSADAEDLSGSIASPDVKLNLGGDFIKESTATTFLRQRGYGWLLEVEDDDPEDNKPLLEELDIDLKDIYYKIRCVLMPMPSLGFNRQVVRDNPDFWGPLAVVLFFSMISLYGQFRVVSWIITIWIFGSLTIFLLARVLGGEVAYGQVLGVIGYSLLPLIVIAPVLLVVGSFEVVSTLIKLFGVFWAAYSAASLLVGEEFKTKKPLLIYPIFLLYIYFLSLYTGV [YIPF4] | 1.32 |
| MGNLFGRKKQSRVTEQDKAILQLKQQRDKLRQYQKRIAQQLERERALARQLLRDGRKERAKLLLKKKRYQEQLLDRTENQISSLEAMVQSIEFTQIEMKVMEGLQFGNECLNKMHQVMSIEEVERILDETQEAVEYQRQIDELLAGSFTQEDEDAILEELSAITQEQIELPEVPSEPLPEKIPENVPVKARPRQAELVAAS [CHMP6] | 2.86 |
| ZNF557 | 1.23 |
| MDRTLESLRHIIAQVLPHRDPALVFKDLNVVSMLQEFWESKQQQKAAFPSEGVVVYESLPAPGPPFVSYVTLPGGSCFGNFQCCLSRAEARRDAAKVALINSLFNELPSRRITKEFIMESVQEAVASTSGTLDDADDPSTSVGAYHYMLESNMGKTMLEFQELMTIFQLLHWNGSLKALRETKCSRQEVISYYSQYSLDEKMRSHMALDWIMKERDSPGIVSQELRMALRQLEEARKAGQELRFYKEKKEILSLALTQICSDPDTSSPSDDQLSLTALCGYH [LIX1] | 1.16 |
| MAGPESDAQYQFTGIKKYFNSYTLTGRMNCVLATYGSIALIVLYFKLRSKKTPAVKAT [USMG5] | 1.23 |
| MLITVYCVRRDLSEVTFSLQVSPDFELRNFKVLCEAESRVPVEEIQIIHMERLLIEDHCSLGSYGLKDGDIVVLLQKDNVGPRAPGRAPNQPRVDFSGIAVPGTSSSRPQHPGQQQQRTPAAQRSQGLASGEKVAGLQGLGSPALIRSMLLSNPHDLSLLKERNPPLAEALLSGSLETFSQVLMEQQREKALREQERLRLYTADPLDREAQAKIEEEIRQQNIEENMNIAIEEAPESFGQVTMLYINCKVNGHPLKAFVDSGAQMTIMSQACAERCNIMRLVDRRWAGVAKGVGTQRIIGRVHLAQIQIEGDFLQCSFSILEDQPMDMLLGLDMLRRHQCSIDLKKNVLVIGTTGTQTYFLPEGELPLCSRMVSGQDESSDKEITHSVMDSGRKEH [DDI1] | 1.11 |
| MSASVVSVISRFLEEYLSSTPQRLKLLDAYLLYILLTGALQFGYCLLVGTFPFNSFLSGFISCVGSFILAVCLRIQINPQNKADFQGISPERAFADFLFASTILHLVVMNFVG [DAD1] | 0.799 |
| MISPDPRPSPGLARWAESYEAKCERRQEIRESRRCRPNVTTCRQVGKTLRIQQREQLQRARLQQFFRRRNLELEEKGKAQHPQAREQGPSRRPGQVTVLKEPLSCARRISSPREQVTGTSSEVFPAQHPPPSGICRDLSDHLSSQAGGLPPQDTPIKKPPKHHRGTQTKAEGPTIKNDASQQTNYGVAVLDKEIIQLSDYLKEALQRELVLKQKMVILQDLLSTLIQASDSSWKGQLNEDKLKGKLRSLENQLYTCTQKYSPWGMKKVLLEMEDQKNSYEQKAKESLQKVLEEKMNAEQQLQSTQRSLALAEQKCEEWRSQYEALKEDWRTLGTQHRELESQLHVLQSKLQGADSRDLQMNQALRFLENEHQQLQAKIECLQGDRDLCSLDTQDLQDQLKRSEAEKLTLVTRVQQLQGLLQNQSLQLQEQEKLLTKKDQALPVWSPKSFPNEVEPEGTGKEKDWDLRDQLQKKTLQLQAKEKECRELHSELDNLSDEYLSCLRKLQHCREELNQSQQLPPRRQCGRWLPVLMVVIAAALAVFLANKDNLMI [TRAF3IP3] | 0.539 |
| MQKPCKENEGKPKCSVPKREEKRPYGEFERQQTEGNFRQRLLQSLEEFKEDIDYRHFKDEEMTREGDEMERCLEEIRGLRKKFRALHSNHRHSRDRPYPI [TCEAL7] | 1.11 |
| MAREPRKNAALDAQSAEDQTGLLTVKVEKEEASALTAEVRAPCSPARGPERSRQRFRGFRYPEAAGPREALSRLRELCGQWLQPEMHSKEQILELLVLEQFLTILPGNLQSWVREQHPESGEEVVVLLEYLERQLDEPAPQVPVGDQGQELLCCKMALLTQTQGSQSSQCQPMKALFKHESLGSQPLHDRVLQVPGLAQGGCCREDAMVASRLTPGSQGLLKMEDVALTLTPGWTQLDSSQVNLYRDEKQENHSSLVSLGGEIQTKSRDLPPVKKLPEKEHGKICHLREDIAQIPTHAEAGEQEGRLQRKQKNAIGSRRHYCHECGKSFAQSSGLTKHRRIHTGEKPYECEDCGKTFIGSSALVIHQRVHTGEKPYECEECGKVFSHSSNLIKHQRTHTGEKPYECDDCGKTFSQSCSLLEHHKIHTGEKPYQCNMCGKAFRRNSHLLRHQRIHGDKNVQNPEHGESWESQGRTESQWENTEAPVSYKCNECERSFTRNRSLIEHQKIHTGEKPYQCDTCGKGFTRTSYLVQHQRSHVGKKTLSQ [ZKSCAN4] | 1.0461 ± 0.00043 |
| MKLPARVFFTLGSRLPCGLAPRRFFSYGTKILYQNTEALQSKFFSPLQKAMLPPNSFQGKVAFITGGGTGLGKGMTTLLSSLGAQCVIASRKMDVLKATAEQISSQTGNKVHAIQCDVRDPDMVQNTVSELIKVAGHPNIVINNAAGNFISPTERLSPNAWKTITDIVLNGTAFVTLEIGKQLIKAQKGAAFLSITTIYAETGSGFVVPSASAKAGVEAMSKSLAAEWGKYGMRFNVIQPGPIKTKGAFSRLDPTGTFEKEMIGRIPCGRLGTVEELANLAAFLCSDYASWINGAVIKFDGGEEVLISGEFNDLRKVTKEQWDTIEELIRKTKGS [DECR1] | 1.18 ± 0.028 |
| MEAAAEPGNLAGVRHIILVLSGKGGVGKSTISTELALALRHAGKKVGILDVDLCGPSIPRMLGAQGRAVHQCDRGWAPVFLDREQSISLMSVGFLLEKPDEAVVWRGPKKNALIKQFVSDVAWGELDYLVVDTPPGTSDEHMATIEALRPYQPLGALVVTTPQAVSVGDVRRELTFCRKTGLRVMGIVENMSGFTCPHCTECTSVFSRGGGEELAQLAGVPFLGSVPLDPALMRTLEEGHDFIQEFPGSPAFAALTSIAQKILDATPACLP [NUBP2] | 1.32 ± 0.035 |
| MLFWHTQPEHYNQHNSGSYLRDVLALPIFKQEEPQLSPENEARLPPLQYVLCAATSPAVKLHEETLTYLNQGQSYEIRLLENRKLGDFQDLNTKYVKSIIRVVFHDRRLQYTEHQQLEGWRWSRPGDRILDIDIPLSVGILDPRASPTQLNAVEFLWDPAKRASAFIQVHCISTEFTPRKHGGEKGVPFRVQIDTFKQNENGEYTEHLHSASCQIKVFKPKGADRKQKTDREKMEKRTAQEKEKYQPSYETTILTECSPWPDVAYQVNSAPSPSYNGSPNSFGLGEGNASPTHPVEALPVGSDHLLPSASIQDAQQWLHRNRFSQFCRLFASFSGADLLKMSRDDLVQICGPADGIRLFNAIKGRNVRPKMTIYVCQELEQNRVPLQQKRDGSGDSNLSVYHAIFLEELTTLELIEKIANLYSISPQHIHRVYRQGPTGIHVVVSNEMVQNFQDESCFVLSTIKAESNDGYHIILKCGL [TFCP2L1] | 0.874 |

— the supplement of paper PMC2577665
